Assay: Catalysis of toluene diisocyanate condensation to cellular/resinous carbodiimide products (Table I)
Parameters: key: C: carbodiimide peaks; I: isocyanurate peaks
Conditions: IR of product; catalyst 1.0 part; 100 parts toluene diisocyanate
Experimental: Utilizing the triazines of Examples III-VI hereof, a series of cellular and resinous products characterized by carbodiimide linkages, as defined in the above-referred to patents, were prepared by the following procedure:
One hundred parts of toluene diisocyanate was admixed with a catalyst in accordance herewith. With stirring, the admixture was heated to its reaction initiation temperature at which time the reactants were transferred to a separate container for foaming.

SMILES: CCN(CC)CCN(C)c1nc(N(C)CCO)nc(N(C)CCN(CC)CC)n1 [Example VI, 2,4-bis(N-methyl-2-diethylaminoethylamino)-6-(N-methyl-2-hydroxyethylamino)-s-triazine]
- IR Peaks: I
